Data on one molecule can be found in PMC4359308.

Sequences of proteins named here, by UniProt entry; tags and fusion partners are left off.
UniProt Q8N122: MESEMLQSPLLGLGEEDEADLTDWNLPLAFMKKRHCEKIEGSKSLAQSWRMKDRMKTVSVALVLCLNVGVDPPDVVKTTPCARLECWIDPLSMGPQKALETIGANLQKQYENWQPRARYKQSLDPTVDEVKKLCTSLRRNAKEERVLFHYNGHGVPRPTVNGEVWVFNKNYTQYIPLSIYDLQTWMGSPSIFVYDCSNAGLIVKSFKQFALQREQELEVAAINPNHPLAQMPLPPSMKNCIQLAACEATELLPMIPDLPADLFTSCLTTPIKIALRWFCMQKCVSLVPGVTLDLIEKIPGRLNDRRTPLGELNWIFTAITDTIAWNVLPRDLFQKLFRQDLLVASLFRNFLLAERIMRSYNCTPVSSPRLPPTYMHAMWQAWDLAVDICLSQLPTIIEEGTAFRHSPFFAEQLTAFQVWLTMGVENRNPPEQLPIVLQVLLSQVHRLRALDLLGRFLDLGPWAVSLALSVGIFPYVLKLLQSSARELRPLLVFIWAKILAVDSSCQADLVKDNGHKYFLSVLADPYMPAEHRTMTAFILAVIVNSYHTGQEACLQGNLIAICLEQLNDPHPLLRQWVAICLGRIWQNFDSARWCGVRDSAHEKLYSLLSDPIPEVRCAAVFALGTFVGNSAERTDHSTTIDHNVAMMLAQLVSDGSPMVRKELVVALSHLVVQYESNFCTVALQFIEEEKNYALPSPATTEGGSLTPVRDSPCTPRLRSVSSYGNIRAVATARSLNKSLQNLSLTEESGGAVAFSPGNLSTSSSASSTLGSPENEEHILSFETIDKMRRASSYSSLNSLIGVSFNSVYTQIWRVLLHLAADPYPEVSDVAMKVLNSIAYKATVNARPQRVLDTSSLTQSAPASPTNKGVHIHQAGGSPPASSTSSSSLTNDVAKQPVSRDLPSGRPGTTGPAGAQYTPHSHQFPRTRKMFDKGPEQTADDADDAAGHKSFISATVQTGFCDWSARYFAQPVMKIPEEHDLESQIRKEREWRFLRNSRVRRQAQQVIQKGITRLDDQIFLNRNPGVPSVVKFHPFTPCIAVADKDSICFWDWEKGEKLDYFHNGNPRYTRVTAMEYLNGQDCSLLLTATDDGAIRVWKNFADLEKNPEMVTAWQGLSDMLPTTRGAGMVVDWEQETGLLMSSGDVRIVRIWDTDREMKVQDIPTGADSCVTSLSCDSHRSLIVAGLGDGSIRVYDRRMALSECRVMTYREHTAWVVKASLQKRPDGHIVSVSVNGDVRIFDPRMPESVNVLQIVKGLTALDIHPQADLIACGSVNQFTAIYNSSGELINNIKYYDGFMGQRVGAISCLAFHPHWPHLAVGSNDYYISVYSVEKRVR
UniProt Q6R327: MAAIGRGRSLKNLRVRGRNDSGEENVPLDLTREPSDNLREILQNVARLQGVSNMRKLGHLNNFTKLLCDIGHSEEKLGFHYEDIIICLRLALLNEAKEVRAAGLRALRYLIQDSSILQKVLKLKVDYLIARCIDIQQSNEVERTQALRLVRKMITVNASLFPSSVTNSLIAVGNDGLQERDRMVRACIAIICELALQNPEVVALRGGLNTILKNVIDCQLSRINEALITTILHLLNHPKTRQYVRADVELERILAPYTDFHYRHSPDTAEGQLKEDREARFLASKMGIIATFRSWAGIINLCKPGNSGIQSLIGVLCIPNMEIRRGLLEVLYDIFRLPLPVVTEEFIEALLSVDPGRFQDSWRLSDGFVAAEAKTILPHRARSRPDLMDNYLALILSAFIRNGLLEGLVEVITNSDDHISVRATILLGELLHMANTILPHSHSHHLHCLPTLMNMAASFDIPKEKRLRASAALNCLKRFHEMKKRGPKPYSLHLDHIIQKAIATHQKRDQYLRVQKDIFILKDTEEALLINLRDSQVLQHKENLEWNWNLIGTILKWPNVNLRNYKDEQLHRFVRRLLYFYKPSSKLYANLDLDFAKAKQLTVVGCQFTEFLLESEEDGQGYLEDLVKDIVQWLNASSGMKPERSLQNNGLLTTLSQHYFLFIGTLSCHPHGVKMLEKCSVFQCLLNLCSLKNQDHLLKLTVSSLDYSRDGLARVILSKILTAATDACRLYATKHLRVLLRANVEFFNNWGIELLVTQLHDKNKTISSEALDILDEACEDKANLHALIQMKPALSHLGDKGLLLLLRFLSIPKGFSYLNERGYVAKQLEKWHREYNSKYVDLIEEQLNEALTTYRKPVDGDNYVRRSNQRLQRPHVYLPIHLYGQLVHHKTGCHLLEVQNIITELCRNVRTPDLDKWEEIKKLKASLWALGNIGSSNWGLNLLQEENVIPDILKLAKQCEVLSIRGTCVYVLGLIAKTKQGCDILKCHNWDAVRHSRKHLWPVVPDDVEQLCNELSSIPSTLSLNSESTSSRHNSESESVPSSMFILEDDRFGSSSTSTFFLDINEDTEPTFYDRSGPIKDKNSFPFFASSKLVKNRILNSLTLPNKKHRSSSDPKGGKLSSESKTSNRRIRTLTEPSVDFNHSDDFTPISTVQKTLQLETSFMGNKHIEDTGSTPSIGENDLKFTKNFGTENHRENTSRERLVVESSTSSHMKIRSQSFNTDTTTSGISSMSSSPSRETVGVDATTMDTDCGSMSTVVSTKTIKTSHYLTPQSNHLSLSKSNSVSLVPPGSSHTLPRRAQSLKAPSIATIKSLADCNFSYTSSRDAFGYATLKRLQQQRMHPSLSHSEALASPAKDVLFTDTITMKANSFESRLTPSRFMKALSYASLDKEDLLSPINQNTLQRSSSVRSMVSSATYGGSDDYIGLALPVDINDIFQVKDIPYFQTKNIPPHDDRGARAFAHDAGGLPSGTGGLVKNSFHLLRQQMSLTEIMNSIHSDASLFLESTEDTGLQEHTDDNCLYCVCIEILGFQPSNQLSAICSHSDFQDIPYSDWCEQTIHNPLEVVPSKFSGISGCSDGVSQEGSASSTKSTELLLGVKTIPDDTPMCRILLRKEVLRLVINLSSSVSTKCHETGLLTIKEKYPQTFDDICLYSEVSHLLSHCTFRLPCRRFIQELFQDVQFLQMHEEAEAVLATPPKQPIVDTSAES

These are yes or no findings as the source states them, for the method shown. Binding seen in cells or lysates may run through a third protein. Some binding calls cover weakened binding; strength is not graded here.

Experiment [1] deals with raptor (human (endogenous in T24 and E6)) (UniProt Q8N122). Nature of the experiment: co-IP; anti-raptor or anti-rictor antibody on Dynabeads Protein G, cell lysates (500 ug-4 mg) 2 h at 25°C; T24 cells serum-starved, with or without 100 ng/ml EGF 10 min, or transfected with Gab1, raptor or rictor siRNA; immunoblot for mTOR, raptor or rictor, Gab1.
Experiment [2] has as its target rictor (human (endogenous in T24 and E6)) (UniProt Q6R327). Described as above.

B1: Grb2-associated binder 1 (Gab1) (protein, UniProt Q13480 1-694)
chain: MSGGEVVCSGWLRKSPPEKKLKRYAWKRRWFVLRSGRLTGDPDVLEYYKNDHAKKPIRIIDLNLCQQVDAGLTFNKKEFENSYIFDINTIDRIFYLVADSEEEMNKWVRCICDICGFNPTEEDPVKPPGSSLQAPADLPLAINTAPPSTQADSSSATLPPPYQLINVPPHLETLGIQEDPQDYLLLINCQSKKPEPTRTHADSAKSTSSETDCNDNVPSHKNPASSQSKHGMNGFFQQQMIYDSPPSRAPSASVDSSLYNLPRSYSHDVLPKVSPSSTEADGELYVFNTPSGTSSVETQMRHVSISYDIPPTPGNTYQIPRTFPEGTLGQTSKLDTIPDIPPPRPPKPHPAHDRSPVETCSIPRTASDTDSSYCIPTAGMSPSRSNTISTVDLNKLRKDASSQDCYDIPRAFPSDRSSSLEGFHNHFKVKNVLTVGSVSSEELDENYVPMNPNSPPRQHSSSFTEPIQEANYVPMTPGTFDFSSFGMQVPPPAHMGFRSSPKTPPRRPVPVADCEPPPVDRNLKPDRKVKPAPLEIKPLPEWEELQAPVRSPITRSFARDSSRFPMSPRPDSVHSTTSSSDSHDSEENYVPMNPNLSSEDPNLFGSNSLDGGSSPMIKPKGDKQVEYLDLDLDSGKSTPPRKQKSSGSGSSVADERVDYVVVDQQKTLALKSTREAWTDGRQSTESETPAKSVK
As for B1, the binding result in experiment [1] and in experiment [2] was “binds” throughout.
